Measurements taken from paper PMC8510601, “Discovery of benzamide-hydroxypyridinone hybrids as potent multi-targeting agents for the treatment of Alzheimer's disease” (Journal of Enzyme Inhibition and Medicinal Chemistry, 2021).

How the values were obtained:
[1] = PAMPA
in vitro = conditions: PAMPA

## COc1cc2c(cc1OC)C(=O)C(CC1CCN(Cc3ccccc3)CC1)C2 (centres unmarked) [Donepezil]
[1]
  Prediction of CNS penetrability: CNS + (key: CNS +: Pe (10^–6 cm/s) > 4.0, high BBB permeability; CNS ±: 2.0 < Pe (10^–6 cm/s) < 4.0, uncertain BBB permeability; CNS −: Pe (10^–6 cm/s) < 2.0, low BBB permeability)
In vitro
  Papp: 10.4 ± 0.98 ×10⁻⁶ cm/s
